The other results are listed elsewhere or left out. Shown are side measurements of this screen, not its main read-out; they come without a call. Compounds called inactive in the main read-out are mostly missing here. Words in brackets tell the shape of the fitted curve; partial curves, single points and poor fits give uncertain potencies.
Assay: qHTS Assay for Lipid Storage Modulators in Drosophila S3 Cells;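 for cell number change: cells counted by Cell Tracker Red CMTPX staining in the red channel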
Details: BODIPY lipid droplet fluorescence, 18-24 h; for cell number change: measured here: cell count max response, cells fed with added oleic acid
Summary of the method: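 Drosophila S3 cells loaded with oleic acid (400 uM, as added) and compounds at several concentrations; lipid droplets imaged by 488-nm laser-scanning cytometry, 500–530 nm intensity and object ratio to cell channel. Percent activity normalized to 20 uM Triacsin C.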

[1] = measured here: lipid fluorescence (Fed channel) AC50, cells fed with added oleic acid
[2] = measured here: cell number channel AC50, cells fed with added oleic acid

Row | Structure (SMILES) | AC50 [1] | cell number change [%] | AC50 [2]
1 | COc1ccc(NC(=O)Nc2cc(C)ccc2OC(F)F)c(OC)c1 | 0.13 µM [rising, full curve, poor fit] |  | 
2 | CCOC(=O)C1=C(N)Oc2cc(O)ccc2C1c1ccc(C)cc1 (stereo not drawn) |  | -60.8 | 20.6 µM [falling, single point]
3 | COc1ccc(CCN(C(=O)Cn2nnc3ccccc32)C(C(=O)NCC2CCCO2)c2ccncc2)cc1OC (stereo not drawn) |  | 17.6 | 
4 | Cc1ccc2oc(-c3cccc(NC(=O)/C=C/c4cccc([N+](=O)[O-])c4)c3C)nc2c1 | 6.51 µM [falling, full curve, poor fit] | 4.57 | 
5 | C=C(C)C1CC=C(C)/C(=N/NC(=O)c2ccoc2C)C1 (stereo not drawn) |  | 12 | 4.61 µM [falling, single point]
6 | O=[N+]([O-])c1ccc(N=Nc2ncc[nH]2)cc1 | 16.4 µM [falling, partial curve] | -49.6 | 16.4 µM [falling, partial curve]
7 | CC1CCN(c2ccc3nnc(CCC(=O)NCCCOC(C)C)n3n2)CC1 | 0.366 µM [rising, full curve, poor fit] | 11.2 | 
8 | CCc1cc(=O)oc2cc(OCc3nn[nH]n3)ccc12 | 1.64 µM [rising, partial curve] | 72.9 | 1.46 µM [rising, full curve]
9 | COC(=O)C1=CN(C(C)C)C=C(C(=O)OC)C1c1cc2c(cc1Br)OCO2 | 4.11 µM [rising, partial curve, poor fit] |  | 2.31 µM [rising, partial curve]
10 | Cc1ccc(C)c(N(C(=O)CCC(=O)Nc2cc(C)on2)C(C(=O)NC2CCCC2)c2ccco2)c1 (stereo not drawn) |  | 11.7 | 1.3 µM [rising, partial curve]
11 | COc1cccc(/C=C/C(=O)NCc2ccc3c(c2)OCO3)c1 |  | 24.3 | 
12 | Nc1nc(SCC(=O)NCC2CCCO2)n[nH]1 (stereo not drawn) | 20.6 µM [rising, single point] | 10.9 | 

Another view of some results above:
Row,Structure (SMILES),AC50 [1],cell number change [%],AC50 [2]
2,CCOC(=O)C1=C(N)Oc2cc(O)ccc2C1c1ccc(C)cc1 (stereo not drawn),,-60.8,"20.6 µM [falling, single point]"
8,CCc1cc(=O)oc2cc(OCc3nn[nH]n3)ccc12,"1.64 µM [rising, partial curve]",72.9,"1.46 µM [rising, full curve]"
